Data as given in PubChem BioAssay AID602196 (INSERM, 2012)

Screen: 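Modifiers of cisplatin sensitivity in A549 cells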
System: human A549 lung cancer cells
Reagent: siRNA pair against human genes
Duration: 48 h transfection before cisplatin; time from cisplatin to read-out not stated
Treatment: cisplatin at a dose killing half of control-siRNA cells; exact dose and duration not given
Read-out: 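Cisplatin cell death as a shift from the 50% death seen with control siRNA; siRNAs toxic or growth-blocking alone scored 0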
Direction: two-siRNA summed score (-2 to +2): higher = both siRNAs protect from cisplatin killing; -2 means both sensitise
Call rule: 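siRNAs harmful alone (LDH or WST-1) get 0; others get +1 for less and -1 for more cisplatin killing; genes are active when the two siRNAs give the same sign, summing to ±2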
Calls: active = both siRNAs shift cisplatin killing the same way; inactive = no consistent shift, or siRNA harmful alone
In all, the deposit lists about 23,000 reagents; below is a part drawn at random. In the full data, 455 (2%) got an active call. 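Active includes both protection and sensitisation; some change values fall well beyond the stated -50 to +50 range.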 A number with no mark means an inactive call. Not all columns of the deposit are shown. Not given: the amount of reagent.

CIT: two-siRNA summed score (-2 to +2) = 1
LOC401119: two-siRNA summed score (-2 to +2) = 0
ZNF709: two-siRNA summed score (-2 to +2) = 0
MAP3K10: two-siRNA summed score (-2 to +2) = 0
SLC17A3: two-siRNA summed score (-2 to +2) = 1
PCYT1B: two-siRNA summed score (-2 to +2) = -1
LINC00471: two-siRNA summed score (-2 to +2) = 0
SERTAD3: two-siRNA summed score (-2 to +2) = 0
EIF2AK2: two-siRNA summed score (-2 to +2) = 1
ACSBG1: two-siRNA summed score (-2 to +2) = 0
TPK1: two-siRNA summed score (-2 to +2) = 0
LOC441297: two-siRNA summed score (-2 to +2) = 1
INPP5F: two-siRNA summed score (-2 to +2) = 1
LOC389089: two-siRNA summed score (-2 to +2) = 0
LOC440420: two-siRNA summed score (-2 to +2) = 0
TAF15: two-siRNA summed score (-2 to +2) = 0
ALOX5: two-siRNA summed score (-2 to +2) = 0
ARHGDIB: two-siRNA summed score (-2 to +2) = 0
GARIN4: two-siRNA summed score (-2 to +2) = 0

Continued, starting with the last 3 of the part before.
ALOX5: two-siRNA summed score (-2 to +2) = 0
ARHGDIB: two-siRNA summed score (-2 to +2) = 0
GARIN4: two-siRNA summed score (-2 to +2) = 0
LOC402188: two-siRNA summed score (-2 to +2) = -1
TRPM8: two-siRNA summed score (-2 to +2) = 1
OASL: two-siRNA summed score (-2 to +2) = -1
COX15: two-siRNA summed score (-2 to +2) = 0
GPR132: two-siRNA summed score (-2 to +2) = 0
FBXW4: two-siRNA summed score (-2 to +2) = 0
LOC391429: two-siRNA summed score (-2 to +2) = 1
DPY19L4: two-siRNA summed score (-2 to +2) = 0
STX16: two-siRNA summed score (-2 to +2) = 0
PRADC1: two-siRNA summed score (-2 to +2) = 0
LOC401725: two-siRNA summed score (-2 to +2) = 0
OR5AS1: two-siRNA summed score (-2 to +2) = 0
PTPN5: two-siRNA summed score (-2 to +2) = 1
NDUFB1: two-siRNA summed score (-2 to +2) = 0
ZKSCAN3: two-siRNA summed score (-2 to +2) = 0
WSB1: two-siRNA summed score (-2 to +2) = 0
BEX1: two-siRNA summed score (-2 to +2) = 1
UFD1P1: two-siRNA summed score (-2 to +2) = 0
FOXO3: two-siRNA summed score (-2 to +2) = 0
IZUMO4: two-siRNA summed score (-2 to +2) = -1
APOOL: two-siRNA summed score (-2 to +2) = 1
